Results are given in words; binding and its absence hold for the method and conditions named. In cells and extracts the contact can be indirect. A yes stands for co-enrichment or nearness to the bait. Other partners may have been found. Where a sequence is shown, tags or fusion partners need not be part of it.
Target: T1, FLAG-RNF157 full length (RING finger protein 157), wild type (human) (UniProt Q96PX1)
T1 sequence: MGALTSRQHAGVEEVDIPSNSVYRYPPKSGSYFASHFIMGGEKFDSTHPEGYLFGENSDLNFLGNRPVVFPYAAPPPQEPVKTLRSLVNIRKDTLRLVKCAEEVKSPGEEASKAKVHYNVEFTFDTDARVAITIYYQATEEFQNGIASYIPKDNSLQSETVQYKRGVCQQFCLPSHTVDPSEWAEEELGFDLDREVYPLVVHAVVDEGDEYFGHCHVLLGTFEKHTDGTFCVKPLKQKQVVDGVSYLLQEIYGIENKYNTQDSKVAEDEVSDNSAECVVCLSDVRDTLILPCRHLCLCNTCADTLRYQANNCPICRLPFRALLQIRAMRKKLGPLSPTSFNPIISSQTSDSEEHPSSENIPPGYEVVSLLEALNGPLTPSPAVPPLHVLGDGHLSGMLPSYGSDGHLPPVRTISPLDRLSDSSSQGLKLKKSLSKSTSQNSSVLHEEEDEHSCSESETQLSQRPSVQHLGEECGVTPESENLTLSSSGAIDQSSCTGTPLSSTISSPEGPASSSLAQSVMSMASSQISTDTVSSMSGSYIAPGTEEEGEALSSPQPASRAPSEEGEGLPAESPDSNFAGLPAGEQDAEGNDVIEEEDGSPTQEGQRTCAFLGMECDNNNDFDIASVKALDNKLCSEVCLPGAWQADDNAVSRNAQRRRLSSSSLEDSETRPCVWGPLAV
Assay: affinity purification with mass spectrometry; 624MEL and A2058 cells expressing FLAG-RNF157 or FLAG-GFP; anti-FLAG M2 beads, high-salt (420 mM NaCl) and low-salt (300 mM NaCl) washes, elution with 3x FLAG peptide, SDS-PAGE, trypsin, LTQ-Orbitrap

“RM19 (mitochondrial ribosomal protein) (human (endogenous in 624MEL and A2058))” was tested, and the binding was “binds”.

Source: publication PMC5582827
